The values that follow come from the supplement of paper PMC10849652.

Amino acid sequences for entries named in this document (tags omitted). A change or cut given only in a name is not applied to a line headed by its entry.
UniProt Q99759: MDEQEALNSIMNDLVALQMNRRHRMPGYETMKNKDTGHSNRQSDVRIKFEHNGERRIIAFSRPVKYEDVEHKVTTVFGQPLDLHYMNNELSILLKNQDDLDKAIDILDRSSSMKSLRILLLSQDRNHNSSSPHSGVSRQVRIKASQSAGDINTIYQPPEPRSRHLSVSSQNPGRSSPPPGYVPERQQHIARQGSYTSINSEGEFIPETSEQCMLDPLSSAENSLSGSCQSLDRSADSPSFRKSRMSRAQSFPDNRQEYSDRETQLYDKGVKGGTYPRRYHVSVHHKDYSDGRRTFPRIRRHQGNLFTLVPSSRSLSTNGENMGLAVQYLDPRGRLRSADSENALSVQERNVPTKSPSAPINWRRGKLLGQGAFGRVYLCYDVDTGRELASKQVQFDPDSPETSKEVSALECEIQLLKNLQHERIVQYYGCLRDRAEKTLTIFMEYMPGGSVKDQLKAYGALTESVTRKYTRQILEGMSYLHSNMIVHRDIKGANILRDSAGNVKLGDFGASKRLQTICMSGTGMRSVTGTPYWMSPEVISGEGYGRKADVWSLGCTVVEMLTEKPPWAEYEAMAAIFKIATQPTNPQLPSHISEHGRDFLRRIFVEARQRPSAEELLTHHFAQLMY
UniProt O43325: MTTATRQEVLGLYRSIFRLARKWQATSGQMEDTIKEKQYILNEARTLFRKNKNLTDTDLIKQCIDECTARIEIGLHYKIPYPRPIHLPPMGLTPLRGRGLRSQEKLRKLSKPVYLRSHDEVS
UniProt Q9BPZ7, whole entry, looked up: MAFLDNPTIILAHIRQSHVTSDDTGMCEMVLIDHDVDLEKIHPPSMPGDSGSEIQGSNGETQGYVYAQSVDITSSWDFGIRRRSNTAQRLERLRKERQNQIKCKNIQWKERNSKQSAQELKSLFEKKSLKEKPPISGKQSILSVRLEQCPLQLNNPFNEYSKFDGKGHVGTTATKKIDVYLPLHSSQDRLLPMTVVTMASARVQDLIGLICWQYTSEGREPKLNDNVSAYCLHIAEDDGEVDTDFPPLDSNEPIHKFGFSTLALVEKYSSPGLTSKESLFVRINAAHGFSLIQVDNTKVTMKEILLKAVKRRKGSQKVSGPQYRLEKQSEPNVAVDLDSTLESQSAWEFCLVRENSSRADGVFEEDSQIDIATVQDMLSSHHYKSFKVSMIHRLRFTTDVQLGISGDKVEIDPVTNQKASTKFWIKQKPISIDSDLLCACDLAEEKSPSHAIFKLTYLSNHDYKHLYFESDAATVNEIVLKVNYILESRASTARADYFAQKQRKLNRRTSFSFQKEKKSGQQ
UniProt Q9C099: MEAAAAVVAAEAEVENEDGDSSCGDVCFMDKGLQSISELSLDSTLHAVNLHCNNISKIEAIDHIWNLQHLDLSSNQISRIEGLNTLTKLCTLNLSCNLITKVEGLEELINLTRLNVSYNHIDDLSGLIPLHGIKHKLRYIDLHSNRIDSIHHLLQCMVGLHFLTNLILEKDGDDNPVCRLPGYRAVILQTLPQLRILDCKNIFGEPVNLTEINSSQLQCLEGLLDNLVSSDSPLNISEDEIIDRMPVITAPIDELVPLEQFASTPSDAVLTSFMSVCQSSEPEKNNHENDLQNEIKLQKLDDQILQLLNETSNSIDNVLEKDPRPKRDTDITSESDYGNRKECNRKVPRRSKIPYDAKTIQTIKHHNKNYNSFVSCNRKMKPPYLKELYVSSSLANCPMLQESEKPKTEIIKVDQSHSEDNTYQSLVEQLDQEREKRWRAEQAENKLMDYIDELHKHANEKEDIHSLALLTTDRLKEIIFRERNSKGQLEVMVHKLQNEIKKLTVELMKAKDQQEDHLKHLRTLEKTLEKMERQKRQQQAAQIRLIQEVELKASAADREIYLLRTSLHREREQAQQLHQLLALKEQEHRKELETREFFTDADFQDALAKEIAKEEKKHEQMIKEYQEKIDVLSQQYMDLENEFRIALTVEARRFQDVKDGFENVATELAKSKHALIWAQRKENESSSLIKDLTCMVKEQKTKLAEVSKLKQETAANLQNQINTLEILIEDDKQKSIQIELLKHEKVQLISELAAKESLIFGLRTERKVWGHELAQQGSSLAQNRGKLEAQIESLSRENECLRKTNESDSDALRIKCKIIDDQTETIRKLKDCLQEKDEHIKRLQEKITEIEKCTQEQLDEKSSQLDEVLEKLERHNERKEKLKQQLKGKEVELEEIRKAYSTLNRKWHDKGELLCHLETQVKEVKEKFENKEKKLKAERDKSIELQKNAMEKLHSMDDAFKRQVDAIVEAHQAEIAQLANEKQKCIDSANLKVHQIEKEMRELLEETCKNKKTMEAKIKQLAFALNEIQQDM
UniProt Q6NSJ5: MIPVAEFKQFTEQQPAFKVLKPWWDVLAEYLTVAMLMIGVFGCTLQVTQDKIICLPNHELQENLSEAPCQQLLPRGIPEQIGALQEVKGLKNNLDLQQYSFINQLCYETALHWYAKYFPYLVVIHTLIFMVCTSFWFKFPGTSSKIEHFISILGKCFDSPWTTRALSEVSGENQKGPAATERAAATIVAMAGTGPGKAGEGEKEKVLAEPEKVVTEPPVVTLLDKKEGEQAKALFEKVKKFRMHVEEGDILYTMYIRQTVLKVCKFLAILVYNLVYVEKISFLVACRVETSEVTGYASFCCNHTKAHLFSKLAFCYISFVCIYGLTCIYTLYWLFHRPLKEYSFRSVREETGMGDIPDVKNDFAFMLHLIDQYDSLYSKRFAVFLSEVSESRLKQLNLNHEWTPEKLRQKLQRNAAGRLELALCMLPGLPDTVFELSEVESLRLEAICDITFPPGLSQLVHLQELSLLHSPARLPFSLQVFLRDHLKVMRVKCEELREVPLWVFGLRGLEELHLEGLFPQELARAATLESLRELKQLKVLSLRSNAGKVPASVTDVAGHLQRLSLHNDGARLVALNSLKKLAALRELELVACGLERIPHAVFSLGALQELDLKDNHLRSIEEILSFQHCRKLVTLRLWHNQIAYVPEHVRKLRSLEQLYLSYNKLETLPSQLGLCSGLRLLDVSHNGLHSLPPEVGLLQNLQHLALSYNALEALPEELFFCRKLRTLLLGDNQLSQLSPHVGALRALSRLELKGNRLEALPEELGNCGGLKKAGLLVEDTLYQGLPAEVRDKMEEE
UniProt Q9Y4Y9: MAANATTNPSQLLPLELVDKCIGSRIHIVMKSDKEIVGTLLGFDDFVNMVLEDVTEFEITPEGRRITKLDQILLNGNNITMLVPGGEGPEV
UniProt Q13163: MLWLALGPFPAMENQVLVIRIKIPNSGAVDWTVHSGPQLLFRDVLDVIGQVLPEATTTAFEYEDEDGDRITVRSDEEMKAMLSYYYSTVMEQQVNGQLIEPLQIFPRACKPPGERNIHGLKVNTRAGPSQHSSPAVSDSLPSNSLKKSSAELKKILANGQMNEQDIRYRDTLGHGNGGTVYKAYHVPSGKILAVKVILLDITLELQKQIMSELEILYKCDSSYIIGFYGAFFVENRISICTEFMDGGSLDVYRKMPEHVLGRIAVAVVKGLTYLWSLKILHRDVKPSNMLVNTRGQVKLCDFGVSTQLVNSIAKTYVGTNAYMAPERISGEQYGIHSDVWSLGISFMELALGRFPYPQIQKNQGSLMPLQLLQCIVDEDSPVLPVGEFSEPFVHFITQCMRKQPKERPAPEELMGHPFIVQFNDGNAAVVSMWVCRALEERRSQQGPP
UniProt Q15759, whole entry, looked up: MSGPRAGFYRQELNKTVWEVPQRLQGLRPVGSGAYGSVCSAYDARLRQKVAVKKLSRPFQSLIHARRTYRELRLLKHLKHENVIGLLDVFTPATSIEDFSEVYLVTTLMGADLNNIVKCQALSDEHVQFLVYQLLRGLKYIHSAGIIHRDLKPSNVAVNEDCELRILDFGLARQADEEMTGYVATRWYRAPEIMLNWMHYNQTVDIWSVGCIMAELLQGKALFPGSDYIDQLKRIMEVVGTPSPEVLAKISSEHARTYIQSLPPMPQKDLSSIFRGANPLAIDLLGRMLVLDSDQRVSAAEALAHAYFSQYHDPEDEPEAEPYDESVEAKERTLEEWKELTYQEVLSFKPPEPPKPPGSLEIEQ
UniProt Q5TCQ9: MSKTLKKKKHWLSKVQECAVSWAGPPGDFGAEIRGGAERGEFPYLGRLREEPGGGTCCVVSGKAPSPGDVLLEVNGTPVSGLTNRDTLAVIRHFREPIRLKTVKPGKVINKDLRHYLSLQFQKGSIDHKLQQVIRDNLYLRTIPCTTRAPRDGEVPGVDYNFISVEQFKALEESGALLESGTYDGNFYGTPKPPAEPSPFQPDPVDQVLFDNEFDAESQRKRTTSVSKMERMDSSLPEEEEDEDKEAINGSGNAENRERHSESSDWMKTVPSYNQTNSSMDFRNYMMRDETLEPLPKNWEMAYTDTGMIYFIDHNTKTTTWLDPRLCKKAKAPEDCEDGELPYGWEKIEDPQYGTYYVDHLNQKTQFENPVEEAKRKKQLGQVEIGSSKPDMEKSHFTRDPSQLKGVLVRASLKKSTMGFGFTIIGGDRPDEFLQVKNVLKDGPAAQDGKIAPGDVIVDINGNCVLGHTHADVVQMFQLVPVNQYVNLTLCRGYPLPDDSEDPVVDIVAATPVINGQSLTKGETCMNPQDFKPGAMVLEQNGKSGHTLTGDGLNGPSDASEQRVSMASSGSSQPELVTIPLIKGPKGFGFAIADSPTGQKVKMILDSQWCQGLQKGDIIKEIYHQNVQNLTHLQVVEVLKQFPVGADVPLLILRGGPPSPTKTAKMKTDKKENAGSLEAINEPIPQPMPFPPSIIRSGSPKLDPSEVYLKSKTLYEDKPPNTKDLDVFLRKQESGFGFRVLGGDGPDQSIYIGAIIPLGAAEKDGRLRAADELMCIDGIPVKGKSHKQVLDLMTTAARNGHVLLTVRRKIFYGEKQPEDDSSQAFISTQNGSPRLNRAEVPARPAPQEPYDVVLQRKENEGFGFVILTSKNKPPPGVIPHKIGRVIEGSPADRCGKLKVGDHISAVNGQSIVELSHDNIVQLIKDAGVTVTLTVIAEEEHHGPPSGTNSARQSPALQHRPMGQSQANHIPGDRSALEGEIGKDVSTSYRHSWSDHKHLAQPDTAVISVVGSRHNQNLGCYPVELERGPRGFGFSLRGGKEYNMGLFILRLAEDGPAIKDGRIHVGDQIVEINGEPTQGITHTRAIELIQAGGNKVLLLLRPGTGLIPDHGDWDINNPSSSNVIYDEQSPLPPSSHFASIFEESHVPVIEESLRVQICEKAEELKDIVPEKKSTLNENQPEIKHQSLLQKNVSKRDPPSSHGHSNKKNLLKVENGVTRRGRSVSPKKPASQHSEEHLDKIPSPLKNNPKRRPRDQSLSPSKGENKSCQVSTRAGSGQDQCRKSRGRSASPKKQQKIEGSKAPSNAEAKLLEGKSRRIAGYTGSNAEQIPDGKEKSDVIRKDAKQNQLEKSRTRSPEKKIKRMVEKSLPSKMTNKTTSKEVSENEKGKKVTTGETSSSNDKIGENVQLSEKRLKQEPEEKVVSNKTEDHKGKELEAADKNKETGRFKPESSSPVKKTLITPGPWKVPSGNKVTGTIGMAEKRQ
UniProt Q9UPY8, whole entry, looked up: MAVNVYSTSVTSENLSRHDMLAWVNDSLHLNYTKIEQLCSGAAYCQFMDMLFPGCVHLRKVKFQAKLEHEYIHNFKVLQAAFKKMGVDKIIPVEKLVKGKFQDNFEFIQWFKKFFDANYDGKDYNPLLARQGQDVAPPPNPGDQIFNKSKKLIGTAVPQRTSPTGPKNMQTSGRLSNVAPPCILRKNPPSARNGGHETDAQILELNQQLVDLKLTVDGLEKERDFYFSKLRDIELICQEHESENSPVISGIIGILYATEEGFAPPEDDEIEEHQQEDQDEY
UniProt Q96LZ2: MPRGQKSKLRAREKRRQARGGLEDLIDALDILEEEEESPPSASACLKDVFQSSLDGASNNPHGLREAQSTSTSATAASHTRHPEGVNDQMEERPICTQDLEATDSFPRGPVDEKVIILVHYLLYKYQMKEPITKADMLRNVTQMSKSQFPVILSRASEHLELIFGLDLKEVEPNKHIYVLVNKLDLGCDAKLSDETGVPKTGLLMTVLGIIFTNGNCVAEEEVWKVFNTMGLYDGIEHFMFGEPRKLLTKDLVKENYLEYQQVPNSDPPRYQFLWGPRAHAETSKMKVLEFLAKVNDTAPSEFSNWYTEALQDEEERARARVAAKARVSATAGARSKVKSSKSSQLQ
UniProt Q9H8J5: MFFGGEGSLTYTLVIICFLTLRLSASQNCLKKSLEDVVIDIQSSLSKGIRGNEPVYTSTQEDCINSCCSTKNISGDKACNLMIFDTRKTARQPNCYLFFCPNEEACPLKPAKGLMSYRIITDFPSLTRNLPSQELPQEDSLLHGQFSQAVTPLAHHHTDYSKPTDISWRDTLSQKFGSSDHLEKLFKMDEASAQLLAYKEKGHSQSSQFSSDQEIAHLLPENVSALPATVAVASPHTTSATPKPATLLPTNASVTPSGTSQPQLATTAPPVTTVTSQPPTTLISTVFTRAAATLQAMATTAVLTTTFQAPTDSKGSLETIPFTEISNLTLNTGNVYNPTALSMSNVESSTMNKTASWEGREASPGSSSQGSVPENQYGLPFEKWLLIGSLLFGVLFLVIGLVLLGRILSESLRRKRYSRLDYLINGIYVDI

This is one part of the list.

Compound in one assay: C1=CC=C(C=C1)C2=NC(=C(N2)C3=CC=NC=C3)C4=CC(=C(C=C4)Cl)O
Kind of assay: log2 fold change, soluble protein after heating vs DMSO (PISA); higher = thermal stabilisation; K562 cells, 10 uM, 30 min; active = over 0.2 and 3.5 SD of the protein, either way, in both replicates (recomputed). Put shortly: (§1)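 Aliquots of K562 cells (2×10^6 cells/mL) treated with 10 μM compound for 30 min were heated for 3 min over 48°C-58°C. After pooling and extraction in PBS with 0.5% NP-40 at 4°C, soluble protein from a 21,000xg, 90 min spin was quantified by TMTpro 16plex LC-MS/MS with channel sums equalised. Thermal stability is expressed against control samples, from duplicates, as a log2 fold change.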
LRRC8B (UniProt Q6P9F7): the log2 fold change was inactive: -0.139.

Consider MAGEA1 (UniProt P43355), for which the log2 fold change was inactive: -0.115.

For the target MAP7D3 (UniProt Q8IWC1), the log2 fold change was inactive: 0.084.

On to MAP3K3 isoform 2 (UniProt Q99759), for which the log2 fold change is inactive: 0.056.

For LYRM1 (UniProt O43325), the log2 fold change is inactive: -0.063.

As to MAPKAP1 (UniProt Q9BPZ7), the log2 fold change was inactive: -0.108.

MAML1 (UniProt Q92585): the log2 fold change was inactive: -0.004.

Consider LRRCC1 (UniProt Q9C099), for which the log2 fold change is inactive: 0.257.

For the target MAFG (UniProt O15525), the log2 fold change is inactive: -0.068.

As to LRRC8E (UniProt Q6NSJ5), the log2 fold change is inactive: -0.04.

With MAFF (UniProt Q9ULX9), the log2 fold change was inactive: -0.057.

Regarding LYPLA1, A0A087X1K9, the log2 fold change was inactive: -0.105.

For LSM5 (UniProt Q9Y4Y9), the log2 fold change was inactive: -0.076.

On to MAF1 (UniProt Q9H063), for which the log2 fold change was inactive: -0.214.

MAP2K5 (UniProt Q13163): the log2 fold change is inactive: 0.145.

With MAPK11 (UniProt Q15759), the log2 fold change was inactive: 0.744.

On to MAML2 (UniProt Q8IZL2), for which the log2 fold change is inactive: -0.206.

Compound in a further assay: C1=CC=C2C(=C1)C3=NNC4=CC=CC(=C43)C2=O
The description is as above. An outline of the steps:
as §1
In the case of MAGI3 isoform 1 (UniProt Q5TCQ9), the log2 fold change is inactive: 0.08.

With LSM14A, A0A140TA76, the log2 fold change is inactive: 0.129.

Turning to MAPK7 (UniProt Q13164), the log2 fold change was inactive: 0.14.

For the target LRRCC1 (UniProt Q9C099), the log2 fold change is inactive: 0.123.

As to MAFG (UniProt O15525), the log2 fold change was inactive: 0.001.

Turning to MAPRE3 isoform 2 (UniProt Q9UPY8), the log2 fold change is inactive: -0.073.

Take MAGEB10 (UniProt Q96LZ2): the log2 fold change is inactive: 0.022.

On to MANSC1 (UniProt Q9H8J5), for which the log2 fold change was inactive: -0.059.

As for MAFF (UniProt Q9ULX9), the log2 fold change was inactive: 0.019.

Take MAN2B1 (UniProt M0QYZ1): the log2 fold change is inactive: -0.196.

Consider MAP2K5 (UniProt Q13163), for which the log2 fold change was inactive: -0.036.

On to MAP3K10 (UniProt Q02779), for which the log2 fold change was inactive: 0.024.

Compound in the next assay: C1CCN(C1)C(=O)NC2=CC=CC(=C2)NC3=NC=C(C(=N3)NCCC4=CN=CN4)Br
Described as above. An outline of the steps: as §1
As for LSR isoform 3 (UniProt Q86X29), the log2 fold change is inactive: -0.169.

For the target MAGI3 isoform 1 (UniProt Q5TCQ9), the log2 fold change was inactive: -0.036.

Take MAP4K2 (UniProt Q12851): the log2 fold change is inactive: -0.413.

Regarding MAP3K3 isoform 2 (UniProt Q99759), the log2 fold change was inactive: 0.058.

Turning to LSM14A, A0A140TA76, the log2 fold change was inactive: 0.021.

Regarding LYRM1 (UniProt O43325), the log2 fold change was inactive: 0.014.

On to MAPKAP1 (UniProt Q9BPZ7), for which the log2 fold change is inactive: -0.001.

As to LRRCC1 (UniProt Q9C099), the log2 fold change is inactive: 0.121.

Regarding MAPRE3 isoform 2 (UniProt Q9UPY8), the log2 fold change is inactive: 0.012.

In the case of MAP4K4 isoform 6 (UniProt O95819), the log2 fold change is inactive: -0.168.

Take MAGEB10 (UniProt Q96LZ2): the log2 fold change is inactive: -0.094.

LRRC8E (UniProt Q6NSJ5): the log2 fold change is inactive: 0.02.

Take MANSC1 (UniProt Q9H8J5): the log2 fold change is inactive: 0.061.

As to LSM10 (UniProt Q969L4), the log2 fold change is inactive: -0.095.

Take LSM5 (UniProt Q9Y4Y9): the log2 fold change is inactive: 0.216.

On to MAPK11 (UniProt Q15759), for which the log2 fold change is inactive: -0.56.

As for MAP3K10 (UniProt Q02779), the log2 fold change was inactive: 0.041.

Compound in a further assay: C1CN(CCC1(CC2=CC=C(C=C2)Cl)N)C3=NC=NC4=C3C=CN4
The assay is described as above. An outline of the steps: as §1
With LSR isoform 3 (UniProt Q86X29), the log2 fold change was inactive: 0.25.

Consider MAGI3 isoform 1 (UniProt Q5TCQ9), for which the log2 fold change was inactive: 0.1.

MAP4K2 (UniProt Q12851): the log2 fold change is inactive: -0.172.

In the case of MAP3K3 isoform 2 (UniProt Q99759), the log2 fold change is inactive: -0.125.

Regarding LSM14A, A0A140TA76, the log2 fold change was inactive: -0.06.

In the case of LYRM1 (UniProt O43325), the log2 fold change is inactive: 0.075.

On to MAPKAP1 (UniProt Q9BPZ7), for which the log2 fold change was inactive: 0.01.

With LRRCC1 (UniProt Q9C099), the log2 fold change is inactive: 0.101.

As for MAPRE3 isoform 2 (UniProt Q9UPY8), the log2 fold change was inactive: -0.097.

With MAP4K4 isoform 6 (UniProt O95819), the log2 fold change was inactive: -0.025.

For MAGEB10 (UniProt Q96LZ2), the log2 fold change was inactive: -0.222.

LRRC8E (UniProt Q6NSJ5): the log2 fold change was inactive: -0.024.

For MANSC1 (UniProt Q9H8J5), the log2 fold change was inactive: 0.038.

With LSM10 (UniProt Q969L4), the log2 fold change is inactive: -0.143.

For the target LSM5 (UniProt Q9Y4Y9), the log2 fold change was inactive: -0.078.

Regarding MAPK11 (UniProt Q15759), the log2 fold change was inactive: 0.309.

Take MAP3K10 (UniProt Q02779): the log2 fold change was inactive: -0.207.
